In patent US20130108639A1 one finds binding data, which are given here for 41 molecules.

No constants are given. Whether binding was seen depends on the method and setting. Some entries that bind do so weakly or less than the wild type. Tags and fused reporters may be left off the sequences shown.

T1: Annexin A1 (UniProt P04083)
T1 sequence (looked up): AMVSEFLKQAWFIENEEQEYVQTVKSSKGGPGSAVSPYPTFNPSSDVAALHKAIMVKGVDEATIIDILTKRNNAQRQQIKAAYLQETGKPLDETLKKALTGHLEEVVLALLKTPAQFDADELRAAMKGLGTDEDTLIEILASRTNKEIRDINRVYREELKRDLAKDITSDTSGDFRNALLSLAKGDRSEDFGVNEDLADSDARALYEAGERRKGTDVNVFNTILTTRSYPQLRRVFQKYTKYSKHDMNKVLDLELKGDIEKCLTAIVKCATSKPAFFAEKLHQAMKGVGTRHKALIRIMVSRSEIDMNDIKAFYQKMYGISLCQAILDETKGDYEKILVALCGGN

The test concerns the target T1, Annexin A1. Description: phage ELISA, Annexin A1 immobilized on plate, anti-M13-HRP, OD450.
Consider GIHHPIW [Annexin A1 binding polypeptide Number 17 (GIHHPIW)], for which the binding result is reported as “binds”.
To SGNGKPFWM [Annexin A1 binding polypeptide Number 32 (…)] belongs “binds”; to ALHNEPHT [Annexin A1 binding polypeptide Number 28 (ALHNEPHT)], “binds”; to WPWEANH [Annexin A1 binding polypeptide Number 23 (WPWEANH)], “binds”.
As to WGGHPIW [Annexin A1 binding polypeptide Number 18 (WGGHPIW)], the binding result is “binds”.
In the case of MLWEDQD [Annexin A1 binding polypeptide Number 21 (MLWEDQD)], the binding result was “binds”.
In the case of VEGQQWW [Annexin A1 binding polypeptide Number 15 (VEGQQWW)], the binding result is recorded as “binds”.
LWGHGMW [Annexin A1 binding polypeptide Number 7 (LWGHGMW)]: the binding entry was “binds”.
Take ELFDGYD [Annexin A1 binding polypeptide Number 22 (ELFDGYD)]: the binding entry was “binds”.
In the case of IDYGLF [Annexin A1 binding polypeptide Number 14 (IDYGLF)], the binding entry is “binds”.
As to QWGHTLW [Annexin A1 binding polypeptide Number 1 (QWGHTLW)], the binding result is reported as “binds”.
Take WLWPRL [Annexin A1 binding polypeptide Number 13 (WLWPRL)]: the binding result is “binds”.
To PWGHEIW [Annexin A1 binding polypeptide Number 4 (PWGHEIW)] belongs “binds”; to LVLKGKWH [Annexin A1 binding polypeptide Number 31 (LVLKGKWH)], “binds”.
For SGFGHMIW [Annexin A1 binding polypeptide Number 25 (SGFGHMIW)], the binding entry was “binds”.
AWGHPFW [Annexin A1 binding polypeptide Number 8 (AWGHPFW)]: the binding entry was “binds”.
Regarding MLHHHQRE [Annexin A1 binding polypeptide Number 27 (MLHHHQRE)], the binding result was “binds”.
As to STDSNWFFNA [Annexin A1 binding polypeptide Number 39 (…)], the binding result is “binds”.
Regarding LWGHQIW [Annexin A1 binding polypeptide Number 6 (LWGHQIW)], the binding result is recorded as “binds”.
Consider MIQTSSANRD [Annexin A1 binding polypeptide Number 42 (…)], for which the binding result is reported as “binds”.
LLESQNPQD [Annexin A1 binding polypeptide Number 35 (…)]: the binding entry was “binds”.
The entry for IINGWNPIW [Annexin A1 binding polypeptide Number 36 (…)] is “binds”.
For WWGHEQW [Annexin A1 binding polypeptide Number 3 (WWGHEQW)], the binding entry was “binds”.
On to MPENWISWYR [Annexin A1 binding polypeptide Number 40 (…)], for which the binding result is “binds”.
As for DWTTAYGPS [Annexin A1 binding polypeptide Number 37 (…)], the binding entry is “binds”.
In the case of NLNAWF [Annexin A1 binding polypeptide Number 11 (NLNAWF)], the binding entry was “binds”.
Regarding EQYGFPF [Annexin A1 binding polypeptide Number 24 (EQYGFPF)], the binding result is on record as “binds”.
In the case of KWGHEVW [Annexin A1 binding polypeptide Number 2 (KWGHEVW)], the binding entry was “binds”.
For the molecule IQRGGVDWS [Annexin A1 binding polypeptide Number 33 (…)], the binding entry is “binds”.
For PWAKIFW [Annexin A1 binding polypeptide Number 19 (PWAKIFW)], the binding entry is “binds”.
Take VEWPWW [Annexin A1 binding polypeptide Number 12 (VEWPWW)]: the binding entry is reported as “binds”.
Regarding MGSKMWG [Annexin A1 binding polypeptide Number 20 (MGSKMWG)], the binding result is “binds”.
On to AFHNDPAE [Annexin A1 binding polypeptide Number 29 (AFHNDPAE)], for which the binding result was “binds”.
For RDSQSWSWS [Annexin A1 binding polypeptide Number 34 (…)], the binding entry is listed as “binds”.
With LWGHHIW [Annexin A1 binding polypeptide Number 5 (LWGHHIW)], the binding entry is “binds”.
SLNSIL [Annexin A1 binding polypeptide Number 10 (SLNSIL)]: the binding result is “binds”.
Turning to ETRFHAIW [Annexin A1 binding polypeptide Number 26 (ETRFHAIW)], the binding result is reported as “binds”.
To IYDGNWSYWH [Annexin A1 binding polypeptide Number 38 (…)] belongs “binds”; to LLFSDIGN [Annexin A1 binding polypeptide Number 30 (LLFSDIGN)], “binds”.
The entry for WMGHSAW [Annexin A1 binding polypeptide Number 16 (WMGHSAW)] is “binds”.
To VRTDWYSMLM [Annexin A1 binding polypeptide Number 41 (…)] belongs “binds”.
